Data: publication PMC3477315
Results are given in words; binding and its absence hold for the method and conditions named. In cells and extracts the contact can be indirect. Some results given as binding are weak or reduced against the parent protein; the word gives no strength.

Target: T1, 35S-labeled IVT wild-type procaspase-8, Q14790
T1 chain: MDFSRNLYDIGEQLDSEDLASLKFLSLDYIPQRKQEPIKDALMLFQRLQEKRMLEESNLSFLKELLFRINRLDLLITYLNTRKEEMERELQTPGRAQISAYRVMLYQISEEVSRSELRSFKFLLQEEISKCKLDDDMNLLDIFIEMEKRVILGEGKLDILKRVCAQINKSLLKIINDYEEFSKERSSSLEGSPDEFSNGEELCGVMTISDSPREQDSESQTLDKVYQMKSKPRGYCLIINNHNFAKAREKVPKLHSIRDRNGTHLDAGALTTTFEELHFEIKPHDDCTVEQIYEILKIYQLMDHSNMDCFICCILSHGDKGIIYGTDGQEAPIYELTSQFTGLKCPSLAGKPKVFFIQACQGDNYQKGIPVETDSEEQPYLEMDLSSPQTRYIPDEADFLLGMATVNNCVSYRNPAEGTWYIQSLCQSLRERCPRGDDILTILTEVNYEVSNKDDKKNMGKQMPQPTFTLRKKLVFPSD
Experiment: pull-down; in vitro DISC reconstitution as above; procaspase-8 with itself (DED chain), inferred from the amount of IVT 35S-procaspase-8 recruited to the bead-bound complex
Details: remark: other sources report otherwise

B1: 35S-labeled IVT wild-type procaspase-8, Q14790 1-479 (enzyme)
chain: MDFSRNLYDIGEQLDSEDLASLKFLSLDYIPQRKQEPIKDALMLFQRLQEKRMLEESNLSFLKELLFRINRLDLLITYLNTRKEEMERELQTPGRAQISAYRVMLYQISEEVSRSELRSFKFLLQEEISKCKLDDDMNLLDIFIEMEKRVILGEGKLDILKRVCAQINKSLLKIINDYEEFSKERSSSLEGSPDEFSNGEELCGVMTISDSPREQDSESQTLDKVYQMKSKPRGYCLIINNHNFAKAREKVPKLHSIRDRNGTHLDAGALTTTFEELHFEIKPHDDCTVEQIYEILKIYQLMDHSNMDCFICCILSHGDKGIIYGTDGQEAPIYELTSQFTGLKCPSLAGKPKVFFIQACQGDNYQKGIPVETDSEEQPYLEMDLSSPQTRYIPDEADFLLGMATVNNCVSYRNPAEGTWYIQSLCQSLRERCPRGDDILTILTEVNYEVSNKDDKKNMGKQMPQPTFTLRKKLVFPSD
modifications: here or on the partner: 35S-labeled; 35S-labeled
  binding: binds
